Data reported in patent publication US11918624B2, “Therapeutic composition for use in the treatment of COVID-19 and other cytokine storm associated disorders” (priority 2020, dated 2024).
For at least one compound, name, drawing or mass did not settle the structure. Peptide text beside a SMILES is read from it.

System: guinea pig complement
Assay: antibody dependent complement mediated hemolysis assay
Assay type: biochemical
Settings: 1 ug/mL peptide added to guinea pig complement, titrated against turkey erythrocytes with hemolysin
Method: The peptides were synthesized by Fmoc solid phase method, purified on C18 reversa phase chromatography, tested by adding each peptide to and screened for complement inhibitory activity, in a simple antibody dependent hemolysis system in which 1 ug/mL of peptides were added to guinea pig complement, and were titrated against turkey erythrocytes mixed with hemolysin, a complement fixing anti-erythrocyte antibody solution. In the presence the peptides, the hemolythic activity of the complement was reduced, and the corresponding dilutions was determined. The inhibition was estimated by a formula: Inhibition (%)=100−(dilution of sample titer*100)/dilution of control

## CC[C@H](C)[C@H](NC(=O)CNC(=O)[C@H](CCCCN)NC(=O)[C@H](CCCCN)NC(=O)[C@H](CC(=O)O)NC(=O)[C@@H](N)CO)C(=O)N[C@@H](CS)C(=O)N[C@H](C(=O)N[C@@H](C)C(=O)N[C@@H](CC(=O)O)C(=O)N1CCC[C@H]1C(=O)N[C@@H](CS)C(=O)N[C@@H](Cc1ccccc1)C(=O)N[C@@H](CCC(=O)O)C(=O)N[C@H](C(=O)N[C@H](C(=O)O)[C@@H](C)O)C(C)C)C(C)C [SDK1709, SDKKGICVADPCFEVT] (H-SDKKGICVADPCFEVT-OH; N-terminus and C-terminus assumed)
  Hemolysis inhibition (% of maximum): >80%
